This is an account of results in paper PMC8875258.

The chains behind the UniProt entries cited, without tags or fusion partners.
UniProt Q8IUC6: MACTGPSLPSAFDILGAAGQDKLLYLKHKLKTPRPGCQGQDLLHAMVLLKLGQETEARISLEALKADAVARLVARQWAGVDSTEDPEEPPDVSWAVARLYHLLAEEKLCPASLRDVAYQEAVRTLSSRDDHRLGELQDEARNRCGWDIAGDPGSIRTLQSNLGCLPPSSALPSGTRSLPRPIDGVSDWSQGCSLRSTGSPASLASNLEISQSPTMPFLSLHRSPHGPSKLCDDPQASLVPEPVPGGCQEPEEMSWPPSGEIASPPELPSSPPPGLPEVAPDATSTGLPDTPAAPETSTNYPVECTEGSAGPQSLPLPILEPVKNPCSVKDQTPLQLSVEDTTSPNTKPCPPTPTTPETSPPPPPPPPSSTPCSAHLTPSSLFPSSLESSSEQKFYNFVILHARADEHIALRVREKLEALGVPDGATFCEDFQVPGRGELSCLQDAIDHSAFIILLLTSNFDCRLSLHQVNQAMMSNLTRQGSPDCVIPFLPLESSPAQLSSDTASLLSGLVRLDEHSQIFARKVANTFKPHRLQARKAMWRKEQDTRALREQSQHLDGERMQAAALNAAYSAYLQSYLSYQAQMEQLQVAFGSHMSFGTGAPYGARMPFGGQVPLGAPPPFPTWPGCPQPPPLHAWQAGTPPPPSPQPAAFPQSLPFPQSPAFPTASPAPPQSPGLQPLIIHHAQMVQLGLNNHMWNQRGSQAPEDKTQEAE

Assay [1] concerns the target T1, DDX50-HA (pCW57-Ddx50-HA, MEF cell line) (UniProt Q99MJ9).
T1 sequence: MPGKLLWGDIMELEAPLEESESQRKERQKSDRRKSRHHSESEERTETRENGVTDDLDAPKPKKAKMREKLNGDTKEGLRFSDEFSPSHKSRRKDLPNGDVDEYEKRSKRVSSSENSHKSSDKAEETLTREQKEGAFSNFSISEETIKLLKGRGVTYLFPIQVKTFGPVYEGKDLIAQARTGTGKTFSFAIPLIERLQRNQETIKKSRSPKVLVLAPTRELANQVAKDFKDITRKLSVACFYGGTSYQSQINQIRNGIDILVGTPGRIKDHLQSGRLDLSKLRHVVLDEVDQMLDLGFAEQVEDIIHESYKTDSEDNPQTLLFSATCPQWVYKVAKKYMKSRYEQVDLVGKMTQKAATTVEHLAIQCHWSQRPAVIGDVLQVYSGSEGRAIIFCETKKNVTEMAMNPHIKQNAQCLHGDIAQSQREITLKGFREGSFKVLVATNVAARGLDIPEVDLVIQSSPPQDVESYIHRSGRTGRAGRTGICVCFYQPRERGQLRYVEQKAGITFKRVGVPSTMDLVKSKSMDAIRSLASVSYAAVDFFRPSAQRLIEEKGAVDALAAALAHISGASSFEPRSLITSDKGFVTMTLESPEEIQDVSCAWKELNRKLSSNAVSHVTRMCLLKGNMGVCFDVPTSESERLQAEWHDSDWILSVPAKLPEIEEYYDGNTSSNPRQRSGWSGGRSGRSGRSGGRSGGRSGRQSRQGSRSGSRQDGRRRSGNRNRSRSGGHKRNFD
The assay can be described thus: co-IP; MEF DDX50-HA cell lines (doxycycline-induced) transfected with TRIF-cTAP or GFP-Flag, 1 h after transfection of 5 µg/mL PolyIC; lysis in 50 mM Tris pH 7.6, 150 mM NaCl, 1% NP40, 1 mM EDTA, 10% glycerol; M2 Flag-beads or HA-beads (which for this panel is not stated); immunoblot.

Assay [2] concerns the target TRIF-cTAP (pCDNA3-TRIF-cTAP, in HeLa) (UniProt Q8IUC6). Briefly: co-IP; reciprocal immunoprecipitation; HeLa cells transfected with hDDX50-HA along with TRIF-cTAP or GFP-Flag, 1 h after transfection of 5 µg/mL PolyIC; lysis in 50 mM Tris pH 7.6, 150 mM NaCl, 1% NP40, 1 mM EDTA, 10% glycerol; M2 Flag-beads or HA-beads (which for this panel is not stated); immunoblot. A general note: In western blotting, separated proteins are transferred to a membrane and probed.

These are yes or no findings as the source states them, for the method shown. Binding seen in cells or lysates may run through a third protein. Some results given as binding are weak or reduced against the parent protein; the word gives no strength. Where a sequence is shown, tags or fusion partners need not be part of it.

Turning to “TRIF-cTAP (pCDNA3-TRIF-cTAP, in MEFs) (from UniProt Q8IUC6 1-712)”, the binding result in assay [1] was “binds”.

B1: hDDX50-HA (pLDT-hDDX50-HA, in HeLa) (protein, UniProt Q9BQ39 1-737)
chain: MPGKLLWGDIMELEAPLEESESQKKERQKSDRRKSRHHYDSDEKSETRENGVTDDLDAPKAKKSKMKEKLNGDTEEGFNRLSDEFSKSHKSRRKDLPNGDIDEYEKKSKRVSSLDTSTHKSSDNKLEETLTREQKEGAFSNFPISEETIKLLKGRGVTYLFPIQVKTFGPVYEGKDLIAQARTGTGKTFSFAIPLIERLQRNQETIKKSRSPKVLVLAPTRELANQVAKDFKDITRKLSVACFYGGTSYQSQINHIRNGIDILVGTPGRIKDHLQSGRLDLSKLRHVVLDEVDQMLDLGFAEQVEDIIHESYKTDSEDNPQTLLFSATCPQWVYKVAKKYMKSRYEQVDLVGKMTQKAATTVEHLAIQCHWSQRPAVIGDVLQVYSGSEGRAIIFCETKKNVTEMAMNPHIKQNAQCLHGDIAQSQREITLKGFREGSFKVLVATNVAARGLDIPEVDLVIQSSPPQDVESYIHRSGRTGRAGRTGICICFYQPRERGQLRYVEQKAGITFKRVGVPSTMDLVKSKSMDAIRSLASVSYAAVDFFRPSAQRLIEEKGAVDALAAALAHISGASSFEPRSLITSDKGFVTMTLESLEEIQDVSCAWKELNRKLSSNAVSQITRMCLLKGNMGVCFDVPTTESERLQAEWHDSDWILSVPAKLPEIEEYYDGNTSSNSRQRSGWSSGRSGRSGRSGGRSGGRSGRQSRQGSRSGSRQDGRRRSGNRNRSRSGGHKRSFD
Regarding B1, the binding result in assay [2] is recorded as “binds”.
